Test in all cases: two-hybrid; LexA-Ubx variant (pLexA) and B42-partner (pB42) co-transformed into S. cerevisiae EGY48 carrying p8op-LacZ; blue/white colonies on X-gal and liquid β-galactosidase (ONPG) assay after galactose induction at 30°C, reported in Miller units
Test [1] has as its target UbxIb Pro4 (Drosophila melanogaster) (UniProt P83949).
The target of test [2] is UbxIb N103 Pro4 (Drosophila melanogaster) (UniProt P83949).
Test [3] deals with UbxIb Δ103–216 (Drosophila melanogaster) (UniProt P83949).

Amino acid sequences for entries named in this document (tags omitted). A change or cut given only in a name is not applied to a line headed by its entry. Chains listed by the source or under a name are the forms on record and can include a tag or linker.
UniProt P83949: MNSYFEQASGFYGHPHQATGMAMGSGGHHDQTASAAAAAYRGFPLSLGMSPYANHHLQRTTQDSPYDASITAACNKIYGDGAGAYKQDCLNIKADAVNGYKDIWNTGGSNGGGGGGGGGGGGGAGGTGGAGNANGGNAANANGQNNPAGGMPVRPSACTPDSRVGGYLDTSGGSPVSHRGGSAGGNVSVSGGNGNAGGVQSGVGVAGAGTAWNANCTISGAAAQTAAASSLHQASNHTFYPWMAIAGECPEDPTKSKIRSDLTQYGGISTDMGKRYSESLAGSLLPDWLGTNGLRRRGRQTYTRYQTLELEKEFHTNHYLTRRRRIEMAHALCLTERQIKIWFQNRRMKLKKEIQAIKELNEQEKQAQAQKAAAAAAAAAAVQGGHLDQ
UbxIb Pro4 (P83949, form named): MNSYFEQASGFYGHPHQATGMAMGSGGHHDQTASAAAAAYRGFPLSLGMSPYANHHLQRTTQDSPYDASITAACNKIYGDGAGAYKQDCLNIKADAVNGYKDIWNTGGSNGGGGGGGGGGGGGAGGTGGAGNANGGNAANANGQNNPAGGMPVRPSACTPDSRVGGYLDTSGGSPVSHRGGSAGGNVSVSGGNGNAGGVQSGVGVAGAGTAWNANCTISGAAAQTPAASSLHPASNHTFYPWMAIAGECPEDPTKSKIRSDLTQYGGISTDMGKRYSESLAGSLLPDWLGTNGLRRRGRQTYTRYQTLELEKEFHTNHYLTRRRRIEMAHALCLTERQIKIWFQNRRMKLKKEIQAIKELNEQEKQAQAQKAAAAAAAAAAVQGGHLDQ
UbxIb N103 Pro4 (P83949, form named): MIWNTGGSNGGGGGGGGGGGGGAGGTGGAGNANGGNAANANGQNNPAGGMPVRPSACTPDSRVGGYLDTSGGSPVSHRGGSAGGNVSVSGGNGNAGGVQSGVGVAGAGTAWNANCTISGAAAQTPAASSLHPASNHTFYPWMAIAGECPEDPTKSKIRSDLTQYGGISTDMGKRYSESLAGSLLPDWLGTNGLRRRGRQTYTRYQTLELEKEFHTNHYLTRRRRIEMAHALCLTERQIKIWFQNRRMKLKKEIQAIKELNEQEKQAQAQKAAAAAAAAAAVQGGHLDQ
UbxIb Δ103–216 (P83949, form named): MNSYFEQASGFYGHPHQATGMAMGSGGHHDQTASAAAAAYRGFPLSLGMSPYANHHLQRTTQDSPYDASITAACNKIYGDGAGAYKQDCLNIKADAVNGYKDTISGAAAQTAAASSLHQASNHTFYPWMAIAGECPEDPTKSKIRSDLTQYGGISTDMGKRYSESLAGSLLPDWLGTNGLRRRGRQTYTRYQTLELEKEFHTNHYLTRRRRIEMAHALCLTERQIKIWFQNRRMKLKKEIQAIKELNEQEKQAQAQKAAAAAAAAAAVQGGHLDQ
UniProt P50887: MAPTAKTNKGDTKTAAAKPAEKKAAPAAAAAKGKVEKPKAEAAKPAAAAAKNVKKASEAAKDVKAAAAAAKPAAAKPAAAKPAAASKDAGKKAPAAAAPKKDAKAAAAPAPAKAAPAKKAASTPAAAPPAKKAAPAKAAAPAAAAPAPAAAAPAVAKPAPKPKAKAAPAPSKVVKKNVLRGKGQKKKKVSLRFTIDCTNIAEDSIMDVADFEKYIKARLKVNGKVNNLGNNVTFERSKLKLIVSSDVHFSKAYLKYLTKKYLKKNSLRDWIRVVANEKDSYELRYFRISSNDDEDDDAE
UniProt P92177: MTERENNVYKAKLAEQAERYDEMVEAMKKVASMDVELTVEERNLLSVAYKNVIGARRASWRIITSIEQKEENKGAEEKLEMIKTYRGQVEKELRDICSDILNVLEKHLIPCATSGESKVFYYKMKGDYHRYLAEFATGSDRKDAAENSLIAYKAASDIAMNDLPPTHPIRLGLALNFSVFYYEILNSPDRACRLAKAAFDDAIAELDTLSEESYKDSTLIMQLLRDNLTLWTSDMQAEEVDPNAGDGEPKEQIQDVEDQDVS
UniProt Q06453: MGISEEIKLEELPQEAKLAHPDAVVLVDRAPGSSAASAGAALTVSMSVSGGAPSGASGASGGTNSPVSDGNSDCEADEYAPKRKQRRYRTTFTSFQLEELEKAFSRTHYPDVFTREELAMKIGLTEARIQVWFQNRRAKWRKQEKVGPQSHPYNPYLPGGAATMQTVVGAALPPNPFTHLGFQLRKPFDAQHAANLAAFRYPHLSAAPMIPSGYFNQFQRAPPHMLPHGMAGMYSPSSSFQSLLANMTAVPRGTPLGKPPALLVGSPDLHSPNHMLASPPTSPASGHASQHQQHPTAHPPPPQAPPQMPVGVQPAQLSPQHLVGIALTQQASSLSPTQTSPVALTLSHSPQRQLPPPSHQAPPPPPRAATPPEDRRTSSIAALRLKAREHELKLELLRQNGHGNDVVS
UniProt P51140: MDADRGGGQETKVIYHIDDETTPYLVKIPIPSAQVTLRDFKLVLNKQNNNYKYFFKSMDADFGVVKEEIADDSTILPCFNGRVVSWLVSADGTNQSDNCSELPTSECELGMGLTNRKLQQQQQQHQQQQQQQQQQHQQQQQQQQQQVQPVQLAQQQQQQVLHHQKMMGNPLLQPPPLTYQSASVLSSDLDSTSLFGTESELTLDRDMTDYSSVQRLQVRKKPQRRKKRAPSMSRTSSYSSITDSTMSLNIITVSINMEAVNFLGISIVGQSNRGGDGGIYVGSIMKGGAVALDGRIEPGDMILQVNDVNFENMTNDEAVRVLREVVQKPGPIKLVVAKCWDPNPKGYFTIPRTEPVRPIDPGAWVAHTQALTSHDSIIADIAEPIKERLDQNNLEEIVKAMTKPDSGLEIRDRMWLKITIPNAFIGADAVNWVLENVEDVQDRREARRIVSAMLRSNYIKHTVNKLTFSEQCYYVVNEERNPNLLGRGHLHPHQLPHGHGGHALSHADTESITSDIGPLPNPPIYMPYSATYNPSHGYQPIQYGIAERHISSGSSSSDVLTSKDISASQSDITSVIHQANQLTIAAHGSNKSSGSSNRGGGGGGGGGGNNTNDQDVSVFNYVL

No constants are given. Whether binding was seen depends on the method and setting. Some binding calls cover weakened binding; strength is not graded here.

Take “Ribosomal protein L22 (from UniProt P50887 1-299)”: in test [1], the binding result is recorded as “binds”.
Still for that read-out and setting: as for 14-3-3ε (from UniProt P92177 1-262), the entry is “binds”.
For the substance Aristaless (from UniProt Q06453 1-408), the binding result in test [2], in test [3] and in test [1] was “binds” throughout.
With Dishevelled (from UniProt P51140 1-623), in test [1], the binding result is on record as “binds”.
As to “DNA/RNA binding 3-helical bundle domain from Al (amino acids 81–142) (from UniProt Q06453 81-142) (domain or fragment)”, in test [1], the binding entry was “binds”.

These data come from publication PMC4186791.
